{"source": "ChEMBL document CHEMBL1140732", "about": "“2-(3-aryl-3-oxopropen-1-yl)-9-tert-butyl-paullones: a new antileishmanial chemotype” (J Med Chem, 2008)", "key": {"[1]": {"test_system": "Leishmania donovani", "assay": "microbe, parasite or virus in culture", "assay_type": "functional", "conditions": "1S-C12d"}, "[2]": {"test_system": "Leishmania donovani", "assay": "microbe, parasite or virus in culture", "assay_type": "functional", "conditions": "1S-C12d", "remark": "listed apart in the source"}, "[3]": {"test_system": "Leishmania donovani", "assay": "microbe, parasite or virus in culture", "conditions": "1S-C12d"}, "[4]": {"test_system": "Leishmania donovani", "assay": "microbe, parasite or virus in culture", "assay_type": "functional", "conditions": "1S-C12d, THP-1"}, "[5]": {"test_system": "THP-1", "assay": "Toxicity against human THP1 cells at 5 uM by alamar blue viability assay", "conditions": "thp-1, 5 µM"}}, "data": [{"smiles": "Cc1ccc2[nH]c3c(c2c1)CC(=O)Nc1ccccc1-3", "values": [{"measurement": "inhibition at 15 µM", "setting": "[1]", "value": 25.5, "unit": "%"}, {"measurement": "GI50", "setting": "[2]", "value": 15.7, "unit": "µM"}, {"measurement": "inhibition at 50 µM", "setting": "[3]", "value": 91.2, "unit": "%"}, {"measurement": "inhibition at 5 µM", "setting": "[4]", "value": 0, "unit": "%"}, {"measurement": "Activity", "setting": "[5]", "value": 0, "unit": "%"}]}]}
